# Screening data, single-dose tests

By UniProt entry, the sequences of proteins in these tests, tags left out. Residues count along the entry.
UniProt P9WFT3, whole entry: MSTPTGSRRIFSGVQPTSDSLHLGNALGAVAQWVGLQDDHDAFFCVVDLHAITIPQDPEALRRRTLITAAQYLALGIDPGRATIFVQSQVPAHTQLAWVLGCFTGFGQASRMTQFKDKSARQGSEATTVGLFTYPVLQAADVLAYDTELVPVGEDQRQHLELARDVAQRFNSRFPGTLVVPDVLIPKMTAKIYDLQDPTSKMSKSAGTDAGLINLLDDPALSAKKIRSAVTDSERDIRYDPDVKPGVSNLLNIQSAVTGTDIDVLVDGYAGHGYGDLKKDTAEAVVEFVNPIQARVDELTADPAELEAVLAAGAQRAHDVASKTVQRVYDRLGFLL
UniProt P9WNZ1, whole entry: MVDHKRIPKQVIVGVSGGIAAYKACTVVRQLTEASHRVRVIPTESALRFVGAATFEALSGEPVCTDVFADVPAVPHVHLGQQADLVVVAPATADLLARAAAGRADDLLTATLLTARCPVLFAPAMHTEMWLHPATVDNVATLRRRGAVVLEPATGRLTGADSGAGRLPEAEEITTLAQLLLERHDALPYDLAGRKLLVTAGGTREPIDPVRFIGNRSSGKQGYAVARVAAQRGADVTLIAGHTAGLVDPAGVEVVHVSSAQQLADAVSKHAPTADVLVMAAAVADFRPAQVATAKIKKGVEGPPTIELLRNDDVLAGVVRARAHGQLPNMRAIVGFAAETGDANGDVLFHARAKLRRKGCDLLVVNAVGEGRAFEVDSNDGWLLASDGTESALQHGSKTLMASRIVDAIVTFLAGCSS
UniProt A4I591, 1-473: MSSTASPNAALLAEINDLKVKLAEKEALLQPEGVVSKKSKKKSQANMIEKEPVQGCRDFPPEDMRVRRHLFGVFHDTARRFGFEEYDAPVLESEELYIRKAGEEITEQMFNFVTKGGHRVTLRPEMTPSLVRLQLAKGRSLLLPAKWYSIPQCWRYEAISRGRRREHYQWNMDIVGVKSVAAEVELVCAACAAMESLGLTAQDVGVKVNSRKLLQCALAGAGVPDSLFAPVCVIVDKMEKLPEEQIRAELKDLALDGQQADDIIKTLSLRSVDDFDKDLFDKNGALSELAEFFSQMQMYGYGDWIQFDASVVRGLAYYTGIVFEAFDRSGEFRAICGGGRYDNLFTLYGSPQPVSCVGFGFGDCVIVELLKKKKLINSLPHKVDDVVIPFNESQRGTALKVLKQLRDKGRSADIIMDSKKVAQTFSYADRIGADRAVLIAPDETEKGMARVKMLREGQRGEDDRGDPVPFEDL
UniProt I6X8D2, whole entry: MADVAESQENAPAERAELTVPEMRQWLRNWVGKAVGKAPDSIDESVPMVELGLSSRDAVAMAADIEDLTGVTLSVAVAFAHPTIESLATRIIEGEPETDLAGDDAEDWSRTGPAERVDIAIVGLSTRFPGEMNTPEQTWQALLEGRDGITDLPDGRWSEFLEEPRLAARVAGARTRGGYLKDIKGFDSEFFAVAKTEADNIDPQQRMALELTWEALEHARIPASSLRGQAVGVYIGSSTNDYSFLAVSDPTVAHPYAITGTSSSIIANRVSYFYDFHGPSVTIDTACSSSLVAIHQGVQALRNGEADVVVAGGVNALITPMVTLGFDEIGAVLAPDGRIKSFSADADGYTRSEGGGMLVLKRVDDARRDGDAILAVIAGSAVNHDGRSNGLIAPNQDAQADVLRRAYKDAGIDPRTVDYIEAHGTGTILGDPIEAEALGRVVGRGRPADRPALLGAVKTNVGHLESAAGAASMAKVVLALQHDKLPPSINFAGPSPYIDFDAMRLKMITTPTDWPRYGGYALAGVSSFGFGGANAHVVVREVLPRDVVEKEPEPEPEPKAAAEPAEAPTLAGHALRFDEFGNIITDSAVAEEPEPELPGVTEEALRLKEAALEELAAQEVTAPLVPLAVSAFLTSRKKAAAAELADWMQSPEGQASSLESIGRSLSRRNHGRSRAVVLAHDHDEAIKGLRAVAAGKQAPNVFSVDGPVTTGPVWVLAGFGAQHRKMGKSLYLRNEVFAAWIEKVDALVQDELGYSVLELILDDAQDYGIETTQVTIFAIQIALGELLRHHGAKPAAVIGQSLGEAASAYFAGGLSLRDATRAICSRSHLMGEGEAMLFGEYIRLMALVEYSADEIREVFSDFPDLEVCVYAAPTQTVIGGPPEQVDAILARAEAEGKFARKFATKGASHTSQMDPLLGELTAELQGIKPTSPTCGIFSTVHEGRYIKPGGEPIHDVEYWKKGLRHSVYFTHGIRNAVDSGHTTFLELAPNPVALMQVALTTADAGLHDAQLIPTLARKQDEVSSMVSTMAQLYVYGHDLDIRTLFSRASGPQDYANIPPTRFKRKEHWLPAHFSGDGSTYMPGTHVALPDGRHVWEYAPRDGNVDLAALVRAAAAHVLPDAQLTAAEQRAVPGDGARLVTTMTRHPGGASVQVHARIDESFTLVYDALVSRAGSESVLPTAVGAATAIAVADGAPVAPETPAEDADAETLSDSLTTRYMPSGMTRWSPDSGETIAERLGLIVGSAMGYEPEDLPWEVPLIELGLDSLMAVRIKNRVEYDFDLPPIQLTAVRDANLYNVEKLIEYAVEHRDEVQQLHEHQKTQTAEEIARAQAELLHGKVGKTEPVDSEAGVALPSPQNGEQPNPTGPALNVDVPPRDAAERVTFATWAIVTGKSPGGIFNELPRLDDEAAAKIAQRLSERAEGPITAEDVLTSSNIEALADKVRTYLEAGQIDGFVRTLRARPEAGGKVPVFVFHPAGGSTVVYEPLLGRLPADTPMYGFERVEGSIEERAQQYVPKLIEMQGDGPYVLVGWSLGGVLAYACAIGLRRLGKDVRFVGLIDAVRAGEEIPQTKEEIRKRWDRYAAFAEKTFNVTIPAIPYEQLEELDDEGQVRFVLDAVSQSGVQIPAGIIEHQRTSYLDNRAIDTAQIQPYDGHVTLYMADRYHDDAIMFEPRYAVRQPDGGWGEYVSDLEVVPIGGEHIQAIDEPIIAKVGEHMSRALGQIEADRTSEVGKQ

A: 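Enzyme assay of tryptophanyl-tRNA synthetase; the read-out is not stated. Target: Tryptophan-tRNA ligase, Mycobacterium tuberculosis (UniProt P9WFT3). Tested at 10 µM. Higher most likely means stronger inhibition; the record gives no direction and few retests gave an IC50. Of about 65,000 compounds tested this way, about 64 (0.098%) reached 50% or more in at least one test.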
B: 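Coenzyme A biosynthesis protein CoaBC, Mycobacterium tuberculosis (UniProt P9WNZ1). Enzyme assay of CoaBC with a phosphate dye (Biomol Green) read at 650 nm. Concentration: 30 µM. Direction is inferred from only a few compounds that gave an IC50; most scored high, so higher reads as stronger inhibition. Most strong results did not repeat in a second test. Size under these conditions: about 67,000 compounds, about 40 of them at 50% or above in at least one test.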
C: 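Enzyme assay of histidyl-tRNA synthetase; the read-out is not stated. Target: Histidine-tRNA ligase, Leishmania infantum (UniProt A4I591). Compounds at 30 µM. Higher reads as stronger inhibition (inferred: compounds with an IC50 in retests scored well above the rest). The assay is labelled LdHisRS but filed under L. infantum. Size under these conditions: about 69,000 compounds, about 410 of them at 50% or above in at least one test.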
D: 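Enzyme assay of the thioesterase domain of polyketide synthase 13; the read-out is not stated. Target: Polyketide synthase Pks13, Mycobacterium tuberculosis (UniProt I6X8D2). Tested at 30 µM. The record gives no direction; the compounds picked for IC50 retests had high values, so higher reads as stronger inhibition. About 67,000 compounds were tested under these conditions; 0.46% (about 300) showed 50% or more at least once.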

Results are given as percent effect.
The controls that fix the scale are not given in the record; negative values are as filed.
The compounds are a random part of those screened.
A dash means the value is not listed here; it may have been measured.

structure	A	B	C	D
COCCN(CCc1ccccc1)Cc1nc2c(cnn2C)c(=O)[nH]1	2.426	2.728	16.67	-11.63
CN(C)C(=O)NC1COC2(CCN(Cc3ccc(Cl)c(F)c3)CC2)C1 (centres unmarked)	-12.1	0.7614	20.59	-20.24
Cc1nnc(NC(=O)NC2CCCc3c2cnn3CCO)s1 (centres unmarked)	6.445	10.74	16.96	-13.15
Cc1ccc2snc(C(=O)N3CCN(C(=O)NCCC(C)C)CC3)c2c1	31.15	-5.063	-139.5	-6.095
CN(CCCc1cnn(C)c1)C(=O)C1CCCN(C2CCCC2)C1 (centres unmarked)	5.432	0	6.667	-15.72
COc1ccc(COCC(O)CNC(=O)c2ccncc2)cc1 (centres unmarked)	-2.556	-0.6361	6.087	-5.416
Cc1cc(C)nc(NC(=O)NCCCSc2nncn2C)n1	-0.25	0.7856	10.75	-17.77
Cc1nnc(SCC(=O)N2CCC3(CC2)c2ccccc2CC3O)o1 (centres unmarked)	5.22	6.364	14.15	-17.87
CC(C)c1ocnc1C(=O)Nc1cccc(Cn2ccccc2=O)c1	-4.996	-1.942	5.882	26.04
Clc1cccc(-n2cnnn2)c1N1CCCCC1	1.248	5.374	7.965	2.047
Cn1cnc2cc(CCC(=O)Nc3n[nH]c(C4CC4)n3)ccc21	4.45	-3.385	7.865	-22.7
COc1c(NS(=O)(=O)c2cc(C)ccc2C)c(C)nn1C	-5.449	5.04	-36.36	-23.27
CNc1cncc(C2CCCN2S(=O)(=O)c2ccccc2F)n1 (centres unmarked)	-0.2899	4.866	-1.053	34
CN1CCCC(c2cncc(-c3cccc(C(F)(F)F)c3)n2)C1 (centres unmarked)	-3.618	6.258	9.929	0.9392
CCc1nnc(CN(C)C[C@@H]2CCCN3CCCC[C@H]23)o1	-7.746	7.613	5.376	-30.73
CCN1CCN(S(=O)(=O)c2cnc(NC(C)=O)s2)CC1	-3.462	-3.194	8.602	-5.953
CCc1noc(CCC(=O)N[C@@H]2CC[C@@H](n3ccnc3C)[C@@H]2O)n1	-0.1569	10.51	10.34	-2.044
CCN(CC)S(=O)(=O)c1cc(NC(=O)CCc2cscn2)ccc1C	-0.289	0.8696	-0.5236	-19.44
Fc1cnc(N2CC[C@@H](N3CCOCC3)[C@@H]2Cc2cccnc2)nc1	6.599	-3.415	7.563	4.518
Cc1cc(C(=O)NC(C)Cc2ccccc2Cl)n(C)n1 (centres unmarked)	-1.905	3.145	17.7	-14.37
c1csc(-c2noc(CCCN3CCCC3Cn3cncn3)n2)c1 (centres unmarked)	0.000006	10.13	21.93	110.8
CCn1cc(NC(=O)NC(CO)Cc2c[nH]c3ccccc23)cn1 (centres unmarked)	2.58	-	31.43	-39.68
Cc1nc2cc(F)ccc2cc1C(=O)N1CCN(CC(C)O)CC1 (centres unmarked)	-4.956	-6.746	11.61	-13.65
O=C(CCO)N1C[C@H]2CN(c3ccccc3)C(=O)[C@H]2C1	-4.942	3.99	13.46	-13.14
Cc1nc(C(=O)N2CCCCC2c2ccc(CN(C)C)cc2)c(C)o1 (centres unmarked)	0	-15.48	5.556	-8.683
CCC[C@H]1CN(S(=O)(=O)c2ccc(Cl)cc2)C[C@@H]1NC(C)=O	0.6224	2.475	12	-24.83
CC(C)c1nc(C2CCCN2CCc2ccccn2)no1 (centres unmarked)	-1.071	5.646	15.66	-6.97
CCCN(CC(F)(F)F)S(=O)(=O)c1cc(C(N)=O)n(C)c1	-1.162	-2.187	17.33	2.235
CN(Cc1csc(-c2cccs2)n1)C(=O)CCn1ccccc1=O	-1.954	-4.018	20.39	-5.233
O=C1CCNC(=O)N1CC(=O)N1CCC1c1ccc(F)cc1 (centres unmarked)	6.56	15.4	25	-25.96
c1csc(CN2C[C@H]3CCC[C@@]3(COCC3CCOCC3)C2)n1	-2.185	3.171	24.56	-28.38
CS(=O)(=O)N1Cc2ccccc2CC2(CCN(Cc3ccccn3)C2)C1 (centres unmarked)	-1.296	1.842	9.655	-11.45
CC1CCN(c2cc(NC(=O)C3CC3)ncn2)CC1	-3.233	2.886	8.475	-14.47
O=C(NC[C@H]1OC[C@@H](NC2CCC(F)(F)CC2)[C@@H]1O)c1cccs1	1.745	1.545	9.459	-17.03
CN1CC(c2ccccc2)CC2(CCN(C(=O)c3cccnn3)CC2)C1 (centres unmarked)	0.243	3.968	5.556	0.9022
COCCC(=O)N1CCCC1c1nc(O)cc(C(C)C)n1 (centres unmarked)	-5.275	3.65	13.68	-4.409
COc1ccccc1-c1ccc(C2CCCN(C(C)=O)C2)nc1 (centres unmarked)	-3.646	0	18.71	-6.656
CC(=O)NCC(=O)N1Cc2ccnn2CC(COCCN(C)C)C1 (centres unmarked)	-2.766	1.303	14.29	-29.39
Cc1csc(N2CCCN(C(=O)c3nccnc3N)CC2)n1	1.92	-2.258	32.89	-3.854
Cc1ccc(-n2c(COC(C)C)n[nH]c2=O)cc1	-4.354	5.983	6.838	-
Cc1cccc(NC(=O)[C@@H]2CCCN2Cc2ccc(C#N)cc2F)n1	5.865	4.545	9.821	-
O=c1ccc2c(n1Cc1cccnc1)CCN(Cc1ccoc1)CC2	7.244	7.27	26.6	4.667
CCOCCN1CCN(Cc2nnc(-c3occc3C)o2)CC1CC (centres unmarked)	1.586	2.233	14.89	-16.96
CN(C)C(=O)CN1CCCC12CCCN(c1ncc(F)cn1)C2 (centres unmarked)	-0.55	1.138	9.244	-21.69
CC(=O)Nc1nc(C(=O)NC(C)c2ccc(F)c(F)c2)cs1 (centres unmarked)	1.709	14.04	8.264	-21.16
Cn1cnnc1C1CCN(c2cncc(-n3cccn3)n2)CC1	0	3.52	17.31	38.13
Cc1n[nH]c(C)c1CC(=O)N1CCC(O)(CN2CCOCC2)C1 (centres unmarked)	-4.423	-5.256	10.14	-7.9
Cn1c(CCNC(=O)Nc2cn[nH]c2)nc2ccc(F)cc21	1.419	1.72	19.84	-1.708
CCNC(=O)[C@@H]1C[C@H](N)CN1C1CCN(c2ccccc2OC)CC1	-1.955	11.47	7.692	-4.301
Cc1cc(CNc2ccc(C(=O)N3CCc4ccccc43)cn2)on1	-0.8922	6.818	10.96	-11.2
COCc1noc(CN2C(=O)OC[C@@H]2C(C)C)n1	2.006	3.218	22	-20.26
CCc1cnc2c(c1Nc1ccc(OC)cc1)c(=O)n(C)c(=O)n2C	6.284	0.6337	22.33	-
COCCCNC(=O)NCc1cccn1Cc1ccccc1C	1.295	-1.266	10.53	-6.352
O=C(NCc1cc[nH]n1)NCC(c1ccc(F)cc1)N1CCOCC1 (centres unmarked)	-4.677	6.736	10.64	-8.956
c1csc(CN2CCCn3cnc(CN4CCCC4)c3C2)c1	-1.07	0.7614	23.53	-20.83
O=c1c2cccnc2ccn1Cc1nccn1C1CC1	-1.412	5.825	31.33	-36.29
Nc1ncc(-c2ccc(C(F)(F)F)cc2)c(C2CCCNC2)n1 (centres unmarked)	-6.537	7.306	13.42	8.558
Cc1ccc(CN2CC[C@H]3C[C@@H](c4nc(C5CC5)cs4)O[C@@H]3C2)o1	1.906	14.55	19.81	0.5766
CS(=O)(=O)CCCC(=O)N1CCN(CC2CC2)c2ccccc21	2.676	0.8147	23.53	-10.46
Cc1nn(C)c2c(NCCn3cccn3)ncnc12	3.584	1.263	14.16	-51.08

The first 5 entries again:

structure	A	B	C	D
COCCN(CCc1ccccc1)Cc1nc2c(cnn2C)c(=O)[nH]1	2.426	2.728	16.67	-11.63
CN(C)C(=O)NC1COC2(CCN(Cc3ccc(Cl)c(F)c3)CC2)C1 (centres unmarked)	-12.1	0.7614	20.59	-20.24
Cc1nnc(NC(=O)NC2CCCc3c2cnn3CCO)s1 (centres unmarked)	6.445	10.74	16.96	-13.15
Cc1ccc2snc(C(=O)N3CCN(C(=O)NCCC(C)C)CC3)c2c1	31.15	-5.063	-139.5	-6.095
CN(CCCc1cnn(C)c1)C(=O)C1CCCN(C2CCCC2)C1 (centres unmarked)	5.432	0	6.667	-15.72

The values are deposited in ChEMBL (CHEMBL3988442, “University of Dundee, Small-Polar-MMV Screening Library” (2021)).